# According to article doi:10.1101/2024.03.09.584257:
# Results are given in words; binding and its absence hold for the method and conditions named.
# T1: Pae Csy complex (Pseudomonas aeruginosa) (UniProt Q02ML9)
# T1 sequence 1: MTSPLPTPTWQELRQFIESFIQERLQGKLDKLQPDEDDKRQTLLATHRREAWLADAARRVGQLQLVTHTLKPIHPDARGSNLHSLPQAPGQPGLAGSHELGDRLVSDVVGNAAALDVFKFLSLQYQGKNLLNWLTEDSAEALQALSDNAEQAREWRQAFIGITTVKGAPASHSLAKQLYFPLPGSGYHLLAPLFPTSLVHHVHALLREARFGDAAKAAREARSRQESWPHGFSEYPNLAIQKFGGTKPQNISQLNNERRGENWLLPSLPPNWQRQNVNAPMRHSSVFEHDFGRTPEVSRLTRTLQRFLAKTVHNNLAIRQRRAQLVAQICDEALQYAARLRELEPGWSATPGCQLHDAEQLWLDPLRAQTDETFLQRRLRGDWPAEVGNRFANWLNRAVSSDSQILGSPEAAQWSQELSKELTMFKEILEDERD
# T1 sequence 2: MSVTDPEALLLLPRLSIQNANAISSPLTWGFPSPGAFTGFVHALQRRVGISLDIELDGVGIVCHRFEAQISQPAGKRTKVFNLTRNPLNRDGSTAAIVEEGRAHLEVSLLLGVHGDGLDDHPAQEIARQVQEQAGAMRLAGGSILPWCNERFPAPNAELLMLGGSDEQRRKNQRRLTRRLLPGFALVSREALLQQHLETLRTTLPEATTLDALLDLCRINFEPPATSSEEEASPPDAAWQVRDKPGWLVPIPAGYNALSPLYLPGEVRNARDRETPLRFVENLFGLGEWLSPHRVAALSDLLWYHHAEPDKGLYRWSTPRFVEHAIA
# T1 sequence 3: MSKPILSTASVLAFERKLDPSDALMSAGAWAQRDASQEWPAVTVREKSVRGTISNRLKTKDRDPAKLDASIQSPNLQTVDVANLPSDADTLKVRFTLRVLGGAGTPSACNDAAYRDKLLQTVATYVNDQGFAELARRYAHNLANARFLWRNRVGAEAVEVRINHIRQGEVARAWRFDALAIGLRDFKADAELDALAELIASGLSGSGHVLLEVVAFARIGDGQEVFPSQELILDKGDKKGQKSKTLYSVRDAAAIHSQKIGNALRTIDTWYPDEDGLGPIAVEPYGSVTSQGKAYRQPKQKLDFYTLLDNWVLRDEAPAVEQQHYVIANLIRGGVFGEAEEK
# T1 sequence 4: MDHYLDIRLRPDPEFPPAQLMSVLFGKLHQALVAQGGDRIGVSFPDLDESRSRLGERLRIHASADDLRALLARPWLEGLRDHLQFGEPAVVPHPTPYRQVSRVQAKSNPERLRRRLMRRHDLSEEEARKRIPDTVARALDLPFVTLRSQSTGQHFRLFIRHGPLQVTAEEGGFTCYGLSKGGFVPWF
# B1: Pae Cas1 (protein, UniProt Q02ML7 1-324)
# chain: MDDISPSELKTILHSKRANLYYLQHCRVLVNGGRVEYVTDEGRHSHYWNIPIANTTSLLLGTGTSITQAAMRELARAGVLVGFCGGGGTPLFSANEVDVEVSWLTPQSEYRPTEYLQRWVGFWFDEEKRLVAARHFQRARLERIRHSWLEDRVLRDAGFAVDATALAVAVEDSARALEQAPNHEHLLTEEARLSKRLFKLAAQATRYGEFVRAKRGSGGDPANRFLDHGNYLAYGLAATATWVLGIPHGLAVLHGKTRRGGLVFDVADLIKDSLILPQAFLSAMRGDEEQDFRQACLDNLSRAQALDFMIDTLKDVAQRSTVSA
# Target: T1, Pae Csy complex (Pseudomonas aeruginosa)
# Assay: native gel or EMSA
binder,measurement,value
B1,binding,no binding
